Experimental data: PubChem BioAssay AID1487 (National Center for Advancing Translational Sciences (NCATS), 2009)
Where “and” joins values, the source holds several entries; their conditions need not be identical. Equal values may be shown once. This is one part of the list. Shown are side measurements of this screen, not its main read-out; they come without a call. Compounds called inactive in the main read-out are mostly missing here. Potencies come from curve fits of mixed quality, noted in brackets.

Assay: qHTS Assay for Modulators of Lamin A Splicing
Conditions: HeLa LMNA splicing GFP/RFP minigene ratio, 48 h
Method in brief: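 S3 HeLa cells stably expressing lamin A-EGFP splicing minigene plus DsRed2, 600 cells/well, 48 h compound exposure at 37C. Laser-scanning cytometry; analysed as GFP (500-530 nm)/RFP (575-640 nm) total intensity ratio; 0.5% DMSO vehicle.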

[1] = measured here: RFP viability control channel
[2] = measured here: GFP splicing reporter channel

Compound: COc1ccc(Cn2c(=O)oc3ccc(C)cc32)cc1OC
- AC50 [1]: 8.91 µM [rising, partial curve]

Compound: CC(=O)Nc1ccccc1C(=O)OCc1ccc(F)cc1
- AC50 [2]: 0.2 µM [falling, full curve]
- AC50 [1]: 7.08 µM [falling, full curve, poor fit]

Compound: COc1ccc(-c2cc(=NCCCCCC(=O)O)c3cc(C)ccc3o2)cc1
- AC50 [1]: 1.41 µM [falling, partial curve, poor fit]

Compound: CCC[C@@](C)(COC(N)=O)COC(=O)NC(C)C
- AC50 [2]: 10 µM [falling, single point]

Compound: Clc1ccccc1-c1cncnc1NCCc1cnc[nH]1
- AC50 [2]: 10 µM [falling, partial curve]
- AC50 [1]: 7.08 µM [falling, partial curve]

Compound: CC(C)COC(=O)n1c(=O)oc2cc(S(=O)(=O)N3CCCCC3)ccc21
- AC50 [1]: 35.5 µM [rising, single point]

Compound: CN1CC=C(c2c[nH]c3ccccc23)CC1
- AC50 [1]: 12.6 µM [rising, partial curve]

Compound: N#CCn1c(CCl)nc2ccccc2c1=O
- AC50 [2]: 0.158 µM [falling, full curve, poor fit]
- AC50 [1]: 1.41 µM [falling, partial curve]

Compound: O=[N+]([O-])c1cccc(CN2CCN(Cc3ccc(Cl)cc3)CC2)c1
- AC50 [1]: 12.6 µM [rising, partial curve]

Compound: CCCCCCCCCC(=O)O[C@H]1CC[C@H]2[C@@H]3CCC4=CC(=O)CC[C@@H]4[C@H]3CC[C@]12C
- AC50 [2]: 14.1 µM [rising, partial curve]
- AC50 [1]: 12.6 µM [rising, partial curve, poor fit]

Compound: O=C(c1ccc(CNS(=O)(=O)c2ccc(Br)cc2)cc1)N1CCC2(CC1)OCCO2
- AC50 [2]: 14.1 µM [rising, partial curve]
- AC50 [1]: 15.8 µM [rising, partial curve]

Compound: CC(CCC(=O)O)C1CCC2C3CC[C@@H]4CCCC[C@@]4(C)C3CC[C@@]12C (some centres not stated)
- AC50 [2]: 17.8 µM [falling, single point]
- AC50 [1]: 20 µM [falling, single point]

Compound: Cc1ccc(/C=C2/C(=O)NC(=O)N(CCc3ccc(F)cc3)C2=O)o1
- AC50 [2]: 0.0398 µM [falling, single point]
- AC50 [1]: 0.0282 µM [falling, partial curve]

Compound: Nc1ccc2c(c1)Cc1cc([N+](=O)[O-])ccc1-2
- AC50 [1]: 1.58 µM [rising, partial curve, poor fit]

Compound: O=C1C2CC=CCC2C(=O)N1SC(Cl)(Cl)Cl (configuration not stated)
- AC50 [2]: 0.447 µM [falling, full curve, poor fit]
- AC50 [1]: 0.794 µM [falling, full curve, poor fit]

Compound: CCCCCn1c(NC(=O)c2ccco2)c(C(=O)OCC)c2nc3ccccc3nc21
- AC50 [2]: 11.2 µM [rising, single point]

Compound: Cc1ccc(Cn2cccc(C(=O)Nc3ccc(C)c(Cl)c3)c2=O)cc1
- AC50 [1]: 22.4 µM [falling, single point]

Compound: O=[N+]([O-])c1ccccc1
- AC50 [2]: 0.0447 µM [falling, full curve, poor fit]

Compound: CC[N@+]1(C)CCC[C@@H](OC(=O)C(O)(c2ccccc2)c2ccccc2)C1
- AC50 [2]: 12.6 µM [falling, single point]
- AC50 [1]: 0.00141 µM [rising, full curve, poor fit]

Compound: CN1C[C@H](CNC(=O)OCc2ccccc2)C[C@@H]2c3cccc4c3c(cn4C)C[C@H]21
- AC50 [2]: 7.08 µM [falling, full curve, poor fit] and 35.5 µM [falling, single point]
- AC50 [1]: 7.08 µM [falling, partial curve, poor fit] and 15.8 µM [falling, partial curve, poor fit]

Compound: CCCOC1CCCN(C(=O)CCc2nnc(Cc3cccc(C)c3)o2)C1 (configuration not stated)
- AC50 [1]: 0.112 µM [falling, full curve, poor fit]

Compound: CCCCCCCCCCCCCCCC[N+](C)(C)C
- AC50 [2]: 14.1 µM [rising, single point]
- AC50 [1]: 0.562 µM [rising, full curve, poor fit]

Compound: N#CC(C#N)=Cc1cc(O)c(O)c(O)c1
- AC50 [2]: 35.5 µM [falling, single point]
- AC50 [1]: 11.2 µM [rising, single point]

Compound: CCOc1ccccc1OCC(=O)Nc1ccc(Cl)cc1C(=O)c1ccccc1
- AC50 [2]: 17.8 µM [rising, single point]
- AC50 [1]: 20 µM [rising, partial curve]

Compound: O=c1[nH]c(=S)[nH]c(O)c1N=Nc1ccc(OC(F)F)cc1
- AC50 [1]: 0.562 µM [rising, partial curve, poor fit]

Compound: Cc1[nH]n(-c2ccccc2)c(=O)c1C(c1cccc([N+](=O)[O-])c1O)c1c(C)[nH]n(-c2ccccc2)c1=O
- AC50 [1]: 17.8 µM [rising, single point]

Compound: COc1ccc2c(c1)[C@@]13CCCC[C@H]1[C@@H](C2)NCC3
- AC50 [1]: 0.398 µM [rising, partial curve, poor fit]

Compound: COc1cc2c(c(OC)c1OC)-c1ccc(OC)c(=O)cc1[C@@H](NC(C)=O)CC2
- AC50 [2]: 31.6 nM [rising, full curve, poor fit] and 8.91 nM [falling, full curve]
- AC50 [1]: 126 nM [rising, full curve] and 8.91 nM [falling, full curve]

Compound: COc1ccc(C2C(C#N)=C(N)Oc3n[nH]c(C)c32)cc1Cn1cc([N+](=O)[O-])cn1 (configuration not stated)
- AC50 [1]: 25.1 µM [falling, partial curve, poor fit]

Compound: Cc1ccc(/C(CSc2nccn2-c2ncc(C(F)(F)F)cc2Cl)=N\O)cc1
- AC50 [1]: 11.2 µM [rising, partial curve]

Compound: CCC1(CCCC(=O)c2ccc(F)cc2)C(=O)NC(=S)NC1=O
- AC50 [1]: 2.82 µM [falling, partial curve]

Compound: CC[C@@H](CO)NC(=O)[C@@H]1C=C2c3cccc4c3c(cn4C)C[C@H]2N(C)C1
- AC50 [2]: 0.000794 µM [falling, full curve, poor fit]

Compound: CCn1cc(C(=O)O)c(=O)c2cc(F)c(N3CCNCC3)cc21
- AC50 [2]: 7.94 µM [falling, partial curve] and 1 µM [rising, full curve]
- AC50 [1]: 7.94 µM [falling, partial curve, poor fit]

Compound: CC(Cc1ccccc1)NCc1ccccc1Cl (configuration not stated)
- AC50 [1]: 0.178 µM [rising, partial curve, poor fit]

Compound: COc1ccc(C(=O)Nc2ccc(S(=O)(=O)N(Cc3ccccc3)c3ccccc3)cc2)cc1
- AC50 [1]: 0.00708 µM [falling, full curve, poor fit]

Compound: O=C1C=C2C=C[C@H]3C[C@@]2(O1)[C@H]1CCCCN31
- AC50 [2]: 14.1 µM [falling, single point]
- AC50 [1]: 10 µM [falling, single point]

Compound: COc1ccc(C(=O)C2CCCN(Cc3ccc(C)s3)C2)cc1OC (configuration not stated)
- AC50 [1]: 35.5 µM [falling, partial curve]

Compound: Cc1ccc(S(=O)(=O)Nc2cc(C(=O)N3CCC4(CC3)OCCO4)ccc2N2CCCCC2)cc1
- AC50 [2]: 35.5 µM [rising, single point]

Compound: C[C@]12C=CC(=O)C=C1CCC1C2=CC[C@]2(C)[C@@H](C(=O)CN3CCN(c4cc(N5CCCC5)nc(N5CCCC5)n4)CC3)CC[C@@H]12 (some centres not stated)
- AC50 [2]: 2.82 µM [falling, partial curve]

Compound: C[CH2][Hg][S]c1ccccc1C(=O)O
- AC50 [2]: 0.708 µM [falling, full curve]
- AC50 [1]: 0.1 µM [falling, full curve]

Compound: CC1OC1P(=O)(O)O (configuration not stated)
- AC50 [2]: 11.2 µM [rising, partial curve]
- AC50 [1]: 10 µM [rising, partial curve]

Compound: Cc1ccc(/C=C2\C(=O)NC(=S)N(c3ccccc3F)C2=O)s1
- AC50 [1]: 17.8 µM [rising, partial curve]

Compound: C[C@@H]1O[C@H](O[C@@H]2CC[C@@]3(C=O)[C@H]4CC[C@@]5(C)[C@@H](C6=CC(=O)OC6)CC[C@@]5(O)[C@@H]4CC[C@]3(O)C2)C[C@H](O)[C@@H]1O
- AC50 [2]: 0.000891 µM [falling, full curve, poor fit]
- AC50 [1]: 14.1 µM [falling, partial curve, poor fit]

Compound: COC(=O)C(O)(c1ccc(NC(=S)NC(=O)c2ccc(Cl)cc2Cl)cc1)C(F)(F)F (configuration not stated)
- AC50 [2]: 35.5 µM [rising, single point]
- AC50 [1]: 35.5 µM [rising, single point]

Compound: COc1cccc(C(=O)C2CN(C)CC2c2ccc(Cl)cc2)c1 (configuration not stated)
- AC50 [2]: 11.2 µM [falling, partial curve, poor fit]

Compound: O=C(c1ccc(-c2ccccc2)cc1)C1CCCN(Cc2ccn[nH]2)C1 (configuration not stated)
- AC50 [1]: 7.94 µM [falling, full curve, poor fit]

Compound: COc1cc2c(cc1/C=C/[N+](=O)[O-])OCO2
- AC50 [1]: 5.62 µM [falling, single point]

Compound: C[C@H](CCC(=O)O)[C@H]1CC[C@@H]2[C@H]3CC[C@H]4C[C@@H](O)CC[C@@]4(C)[C@H]3CC[C@]21C
- AC50 [2]: 1.12 µM [falling, partial curve, poor fit]
- AC50 [1]: 1.41 µM [falling, single point]

Compound: COP(=S)(OC)Oc1ccc(S(=O)(=O)N(C)C)cc1
- AC50 [1]: 0.355 µM [rising, partial curve]

Compound: CN1/C(=C\C=C\C2=[N+](C)c3ccc4ccccc4c3C2(C)C)C(C)(C)c2ccccc21
- AC50 [2]: 5.62 µM [falling, single point]

Compound: COc1ccc(CC2(CCc3ccncc3)C(=O)NC(=O)NC2=O)c(OC)c1
- AC50 [1]: 0.02 µM [falling, full curve, poor fit]
